{
  "sequences": {"note": "Amino acid sequences for entries named in this document (tags omitted).", "UniProt P19821, whole entry": "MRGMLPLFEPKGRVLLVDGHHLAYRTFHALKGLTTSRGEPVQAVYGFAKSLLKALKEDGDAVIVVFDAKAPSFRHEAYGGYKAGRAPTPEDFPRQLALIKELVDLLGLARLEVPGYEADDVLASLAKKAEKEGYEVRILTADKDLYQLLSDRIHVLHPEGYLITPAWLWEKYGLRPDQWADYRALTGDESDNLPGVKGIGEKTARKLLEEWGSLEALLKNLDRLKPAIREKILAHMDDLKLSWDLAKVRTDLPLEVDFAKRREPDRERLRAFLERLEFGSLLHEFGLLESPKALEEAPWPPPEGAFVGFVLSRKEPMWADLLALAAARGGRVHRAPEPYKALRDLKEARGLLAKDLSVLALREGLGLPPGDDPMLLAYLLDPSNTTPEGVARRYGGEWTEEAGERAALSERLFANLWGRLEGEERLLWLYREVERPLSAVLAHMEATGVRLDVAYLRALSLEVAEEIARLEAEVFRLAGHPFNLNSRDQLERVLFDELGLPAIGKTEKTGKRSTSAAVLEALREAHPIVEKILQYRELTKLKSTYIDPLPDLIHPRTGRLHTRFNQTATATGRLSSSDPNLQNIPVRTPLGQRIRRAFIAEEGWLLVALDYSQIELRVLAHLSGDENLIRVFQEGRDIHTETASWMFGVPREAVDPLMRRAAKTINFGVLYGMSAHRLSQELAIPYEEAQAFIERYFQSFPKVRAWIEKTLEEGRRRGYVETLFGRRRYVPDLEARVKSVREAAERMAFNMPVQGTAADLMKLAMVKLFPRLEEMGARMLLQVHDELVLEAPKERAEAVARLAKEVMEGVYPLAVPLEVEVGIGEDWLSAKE", "UniProt O15527, whole entry": "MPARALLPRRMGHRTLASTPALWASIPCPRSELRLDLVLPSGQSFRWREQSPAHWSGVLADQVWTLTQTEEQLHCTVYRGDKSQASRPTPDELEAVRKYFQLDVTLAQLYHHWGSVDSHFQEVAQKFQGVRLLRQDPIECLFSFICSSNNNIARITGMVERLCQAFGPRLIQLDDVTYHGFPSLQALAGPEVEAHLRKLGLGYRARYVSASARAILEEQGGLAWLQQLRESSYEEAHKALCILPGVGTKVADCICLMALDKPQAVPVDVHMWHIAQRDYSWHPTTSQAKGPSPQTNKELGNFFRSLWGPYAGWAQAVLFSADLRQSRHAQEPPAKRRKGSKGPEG", "UniProt P29372, whole entry": "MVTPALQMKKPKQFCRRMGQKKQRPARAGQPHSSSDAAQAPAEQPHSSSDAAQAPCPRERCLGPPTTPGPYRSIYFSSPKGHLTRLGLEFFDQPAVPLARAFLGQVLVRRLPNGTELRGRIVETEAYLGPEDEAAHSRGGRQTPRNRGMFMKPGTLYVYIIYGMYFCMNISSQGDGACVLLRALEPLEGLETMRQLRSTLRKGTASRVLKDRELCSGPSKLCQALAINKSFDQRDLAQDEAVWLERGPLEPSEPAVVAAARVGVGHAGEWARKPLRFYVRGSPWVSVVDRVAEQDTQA"},
  "source": "patent US20170335381",
  "key": {"Taq DNA polymerase": {"target": "Taq DNA polymerase (UniProt P19821)", "experiment": "inhibition of the protein", "settings": "purified recombinant protein"}, "BamHI": {"target": "T1, BamHI (UniProt P23940)", "T1 sequence (looked up, limits assumed)": "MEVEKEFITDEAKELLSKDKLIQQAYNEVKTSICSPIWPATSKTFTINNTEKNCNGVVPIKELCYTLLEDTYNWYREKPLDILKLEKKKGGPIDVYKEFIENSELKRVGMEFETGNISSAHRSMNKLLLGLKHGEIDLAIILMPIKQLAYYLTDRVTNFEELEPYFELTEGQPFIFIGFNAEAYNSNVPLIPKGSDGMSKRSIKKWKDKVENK", "experiment": "enzyme reaction in vitro", "settings": "deoxyuracil in blocker at positions 5,6,11,12; Taq activity not restored; 5 U/mL, 37 C; purified recombinant protein; folded or branched DNA"}, "Exonuclease I (Exo I)": {"target": "T2, Exonuclease I (Exo I) (UniProt P04995)", "T2 sequence (looked up, limits assumed)": "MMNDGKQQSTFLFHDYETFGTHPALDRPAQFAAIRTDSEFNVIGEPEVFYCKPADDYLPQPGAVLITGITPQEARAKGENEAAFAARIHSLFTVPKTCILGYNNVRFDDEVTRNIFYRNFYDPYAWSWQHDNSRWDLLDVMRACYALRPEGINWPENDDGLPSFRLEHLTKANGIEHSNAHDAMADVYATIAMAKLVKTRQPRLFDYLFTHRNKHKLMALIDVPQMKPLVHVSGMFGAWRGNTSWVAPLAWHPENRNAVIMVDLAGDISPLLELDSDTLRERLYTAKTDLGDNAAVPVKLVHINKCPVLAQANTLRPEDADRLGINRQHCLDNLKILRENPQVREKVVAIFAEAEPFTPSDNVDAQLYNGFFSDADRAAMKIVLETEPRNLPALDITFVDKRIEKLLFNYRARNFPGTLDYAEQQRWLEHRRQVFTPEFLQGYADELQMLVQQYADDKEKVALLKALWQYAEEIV", "experiment": "enzyme reaction in vitro", "settings": "deoxyuracil in blocker at positions 5,6,11,12; Taq activity not restored; 5 U/mL, 37 C; purified recombinant protein; folded or branched DNA"}, "Lambda exonuclease": {"target": "T3, Lambda exonuclease (UniProt P03697)", "T3 sequence (looked up, limits assumed)": "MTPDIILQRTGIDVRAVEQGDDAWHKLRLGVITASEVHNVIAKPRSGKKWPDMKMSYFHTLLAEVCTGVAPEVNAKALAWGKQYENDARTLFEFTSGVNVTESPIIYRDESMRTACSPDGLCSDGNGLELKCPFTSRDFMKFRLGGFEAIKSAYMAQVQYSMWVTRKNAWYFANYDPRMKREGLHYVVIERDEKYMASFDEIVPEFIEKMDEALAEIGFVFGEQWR", "experiment": "enzyme reaction in vitro", "settings": "deoxyuracil in blocker at positions 5,6,11,12; Taq activity not restored; 5 U/mL, 37 C; purified recombinant protein; folded or branched DNA"}, "[1]": {"target": "T4, formamidopyrimidine-DNA glycosylase (Fpg) (UniProt P05523)", "T4 sequence (looked up, limits assumed)": "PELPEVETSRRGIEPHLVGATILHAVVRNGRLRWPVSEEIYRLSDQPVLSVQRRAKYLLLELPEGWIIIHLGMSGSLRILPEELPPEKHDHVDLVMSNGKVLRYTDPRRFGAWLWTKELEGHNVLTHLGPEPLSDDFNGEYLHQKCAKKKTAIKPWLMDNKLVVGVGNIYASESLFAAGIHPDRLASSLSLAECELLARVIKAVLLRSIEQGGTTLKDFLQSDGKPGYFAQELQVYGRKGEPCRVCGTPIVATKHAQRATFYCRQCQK", "experiment": "enzyme reaction in vitro", "settings": "deoxyuracil in blocker at positions 5,6,11,12; Taq activity not restored; 5 U/mL, 37 C; purified recombinant protein; folded or branched DNA"}, "[2]": {"target": "human 8-oxoguanine DNA glycosylase 1 (hOGG1) (Homo sapiens) (UniProt O15527)", "experiment": "enzyme reaction in vitro", "settings": "deoxyuracil in blocker at positions 5,6,11,12; Taq activity not restored; 5 U/mL, 37 C; purified recombinant protein; folded or branched DNA"}, "[3]": {"target": "human alkyladenine DNA glycosylase (hAAG) (Homo sapiens) (UniProt P29372)", "experiment": "enzyme reaction in vitro", "settings": "deoxyuracil in blocker at positions 5,6,11,12; Taq activity not restored; 5 U/mL, 37 C; purified recombinant protein; folded or branched DNA"}, "[4]": {"target": "T5, uracil DNA glycosylase (UDG) (UniProt P12295)", "T5 sequence (looked up, limits assumed)": "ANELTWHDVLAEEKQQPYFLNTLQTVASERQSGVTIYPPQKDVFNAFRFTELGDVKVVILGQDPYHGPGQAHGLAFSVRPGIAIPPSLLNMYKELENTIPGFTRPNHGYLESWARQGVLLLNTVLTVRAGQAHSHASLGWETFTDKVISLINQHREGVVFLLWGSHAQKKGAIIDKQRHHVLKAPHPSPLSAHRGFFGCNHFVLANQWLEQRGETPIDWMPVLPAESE", "experiment": "enzyme reaction in vitro", "settings": "purified recombinant protein, folded or branched DNA"}, "[5]": {"settings": "no inhibition without complementary target, 100 nM aptamer, 25 C, single-stranded DNA, variant of Original DNA aptamer (78-mer)"}},
  "note": "Negatives hold for the conditions tested. For part of these data: Tags and fusion partners may be left off the protein sequences shown.",
  "data": [
    {"sequence": "TTTTTTTTTTTTTTTTTTTTCAATGTACAGTATTG / AAAAAAAAAAAAAAAAAAAA [T20-aptamer / A20-target complex]", "values": [
      {"measurement": "functional effect of the aptamer", "setting": "Taq DNA polymerase; inhibition similar to original 78-mer aptamer, 100 nM aptamer and target, 25 C, folded or branched DNA, variant of T20-aptamer without target", "result": "active"}
    ]},
    {"sequence": "ACTGACTGACTGACTGACTGCAATGTACAGTATTG / CAGTCAGTCAGTCAGTCAGT [Random2-aptamer / Random2-target complex]", "values": [
      {"measurement": "functional effect of the aptamer", "setting": "Taq DNA polymerase; inhibition similar to original 78-mer aptamer, 100 nM aptamer and target, 25 C, folded or branched DNA, variant of Random2-aptamer without target", "result": "active"}
    ]},
    {"sequence": "AGTCAGTCAGTCAGTCAGTCCAATGTACAGTATTG [Random1-aptamer without target]", "values": [
      {"measurement": "functional effect of the aptamer", "setting": "Taq DNA polymerase; [5]", "result": "not active"}
    ]},
    {"sequence": "TTTTAATTTTAATTTTCAATGTACAGTATTG / AAAAUUAAAAUUAAAA [UDG aptamer / UDG blocker]", "values": [
      {"measurement": "activity on this sequence", "setting": "BamHI", "result": "not active"},
      {"measurement": "activity on this sequence", "setting": "Exonuclease I (Exo I)", "result": "not active"},
      {"measurement": "activity on this sequence", "setting": "Lambda exonuclease", "result": "not active"},
      {"measurement": "activity on this sequence", "setting": "[1]", "result": "not active"},
      {"measurement": "activity on this sequence", "setting": "[2]", "result": "not active"},
      {"measurement": "activity on this sequence", "setting": "[3]", "result": "not active"},
      {"measurement": "activity on this sequence", "setting": "[4]; deoxyuracil in blocker at positions 5,6,11,12, uracil excision read out by restored Taq activity, detection limit 0.024 U/mL, 37 C 30 min", "result": "active"},
      {"measurement": "functional effect of the aptamer", "setting": "Taq DNA polymerase; deoxyuracil in blocker at positions 5,6,11,12, inhibited in absence of UDG, 200 nM aptamer, 10 nM blocker, 5.5 nM Taq, folded or branched DNA", "result": "active"}
    ]},
    {"sequence": "TAGGACGGTCACCAGTATTTTTAATCAATGTACAGTATTG / ATTAAAAATACTGGTGACCGTCCTA [Urea-specific aptamer 1 / complementary urea-target 1]", "values": [
      {"measurement": "functional effect of the aptamer", "setting": "Taq DNA polymerase; target dose-dependent inhibition, target detection limit 0.91 nM, 5.5 nM Taq, 200 nM aptamer, 25 C, folded or branched DNA, variant of Urea-specific aptamer 1 without target", "result": "active"}
    ]},
    {"sequence": "AGTCAGTCAGTCAGTCAGTCCAATGTACAGTATTG / GACTGACTGACTGACTGACT [Random1-aptamer / Random1-target complex]", "values": [
      {"measurement": "functional effect of the aptamer", "setting": "Taq DNA polymerase; inhibition similar to original 78-mer aptamer, 100 nM aptamer and target, 25 C, folded or branched DNA, variant of Random1-aptamer without target", "result": "active"}
    ]},
    {"sequence": "TTCTCGGTTGGTCTCTGGCGGAGCAAGACCAGACAATGTACAGTATTGGCCTGATCTTGTGTATGATTCGCTTTTCCC [Original DNA aptamer (78-mer)]", "values": [
      {"measurement": "functional effect of the aptamer", "setting": "Taq DNA polymerase; inhibits Taq primer extension, TaqMan readout, 5.5 nM Taq, 100 nM aptamer, 10 mM Tris pH 8.3, 50 mM KCl, 4 mM MgCl2, 25 C, single-stranded DNA", "result": "active"}
    ]},
    {"sequence": "TACAAGCTGCAATCCCTTTTAAGATCAATGTACAGTATTG / ATCTTAAAAGGGATTGCAGCTTGTA [Chlamydia-specific aptamer / complementary Chlamydia-target]", "values": [
      {"measurement": "functional effect of the aptamer", "setting": "Taq DNA polymerase; target dose-dependent inhibition, target detection limit 1.47 nM, 5.5 nM Taq, 200 nM aptamer, 25 C, folded or branched DNA", "result": "active"}
    ]},
    {"sequence": "TTTTAATTTTAATTTTCAATGTACAGTATTG / AAAATTAAAATTAAAA [UDG aptamer / control UDG blocker (T for U)]", "values": [
      {"measurement": "activity on this sequence", "setting": "[4]; thymine in place of uracil, 0.5 U/mL UDG, 37 C, variant of UDG aptamer / UDG blocker", "result": "not active"},
      {"measurement": "functional effect of the aptamer", "setting": "Taq DNA polymerase; inhibited regardless of presence of UDG, folded or branched DNA, variant of UDG aptamer / UDG blocker, dose not given here", "result": "active"}
    ]},
    {"sequence": "CAATGTACAGTATTGTTTTTTTTTTTTTTTTTTTT / AAAAAAAAAAAAAAAAAAAA [T20-aptamer (Reverse) / A20-target complex]", "values": [
      {"measurement": "functional effect of the aptamer", "setting": "Taq DNA polymerase; inhibition similar to original 78-mer aptamer, 100 nM aptamer and target, 25 C, folded or branched DNA, variant of T20-aptamer (Reverse) without target", "result": "active"}
    ]},
    {"sequence": "TTTTTTTTTTTTTTTTTTTTCAATGTACAGTATTG [T20-aptamer without target]", "values": [
      {"measurement": "functional effect of the aptamer", "setting": "Taq DNA polymerase; [5]", "result": "not active"}
    ]},
    {"sequence": "AAATACTGGTGACCGTCCTACAATGTACAGTATTG / TAGGACGGTCACCAGTATTTTTAATGCTGATTACTTTTGC [Urea-specific aptamer 2 / urea-specific blocker]", "values": [
      {"measurement": "functional effect of the aptamer", "setting": "Taq DNA polymerase; blocker dose-dependent inhibition, also inhibited with non-complementary Chlamydia-target2, 200 nM aptamer, 20 nM blocker, folded or branched DNA", "result": "active"}
    ]},
    {"sequence": "TACAAGCTGCAATCCCTTTTAAGATCAATGTACAGTATTG [Chlamydia-specific aptamer without target]", "values": [
      {"measurement": "functional effect of the aptamer", "setting": "Taq DNA polymerase; high activity at zero target, 200 nM aptamer, 25 C, single-stranded DNA, variant of Original DNA aptamer (78-mer)", "result": "not active"}
    ]},
    {"sequence": "CAATGTACAGTATTGTTTTTTTTTTTTTTTTTTTT [T20-aptamer (Reverse) without target]", "values": [
      {"measurement": "functional effect of the aptamer", "setting": "Taq DNA polymerase; [5]", "result": "not active"}
    ]},
    {"sequence": "TAGGACGGTCACCAGTATTTTTAATCAATGTACAGTATTG [Urea-specific aptamer 1 without target]", "values": [
      {"measurement": "functional effect of the aptamer", "setting": "Taq DNA polymerase; no inhibition without target, 200 nM aptamer, 25 C, single-stranded DNA, variant of Original DNA aptamer (78-mer)", "result": "not active"}
    ]},
    {"sequence": "TTTTAATTTTAATTTTCAATGTACAGTATTG [UDG aptamer freed after UDG cleavage of blocker]", "values": [
      {"measurement": "functional effect of the aptamer", "setting": "Taq DNA polymerase; activity restored after UDG cleavage of uracil in blocker, single-stranded DNA, variant of UDG aptamer / UDG blocker, dose not given here", "result": "not active"}
    ]},
    {"sequence": "AAATACTGGTGACCGTCCTACAATGTACAGTATTG [Urea-specific aptamer 2 released from blocker]", "values": [
      {"measurement": "functional effect of the aptamer", "setting": "Taq DNA polymerase; activity restored when urea-target2 (SEQ 16) strips the blocker, target detection limit 2.67 nM, single-stranded DNA, variant of Original DNA aptamer (78-mer)", "result": "not active"}
    ]},
    {"sequence": "ACTGACTGACTGACTGACTGCAATGTACAGTATTG [Random2-aptamer without target]", "values": [
      {"measurement": "functional effect of the aptamer", "setting": "Taq DNA polymerase; [5]", "result": "not active"}
    ]},
    {"sequence": "TAGGACGGTCACCAGTATTTTTAATCAATGTACAGTATTG / ATCTTAAAAGGGATTGCAGCTTGTA", "values": [
      {"measurement": "functional effect of the aptamer", "setting": "Taq DNA polymerase; polymerase keeps inherent high activity, 200 nM aptamer, 100 nM non-complementary DNA, variant of Urea-specific aptamer 1 without target", "result": "not active"}
    ]}
  ]
}
